Test results: PMC12069552, “Root stem cell homeostasis in Arabidopsis involves cell-type specific transcription factor complexes” (EMBO Reports, 2025)
No constants are given. Whether binding was seen depends on the method and setting. In cells and extracts the contact can be indirect. Some entries that bind do so weakly or less than the wild type.

Target: T1, WOX5-mV(N) (Arabidopsis thaliana) (UniProt Q8H1D2)
T1 sequence: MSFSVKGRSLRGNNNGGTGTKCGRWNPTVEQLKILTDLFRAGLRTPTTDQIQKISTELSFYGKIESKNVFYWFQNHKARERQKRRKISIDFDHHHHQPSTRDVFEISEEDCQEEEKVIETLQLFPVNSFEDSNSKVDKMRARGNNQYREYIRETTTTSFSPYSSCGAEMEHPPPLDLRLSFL
Assay: split reporter; reconstitution of mVenus fluorescence from mV(N) and mV(C) fusions co-expressed in N. benthamiana epidermal leaf cells, used as donor for FRET-FLIM

B1: BRAVO-mCherry (natural protein, Arabidopsis thaliana, UniProt Q6R053 1-323, looked up)
chain: MNPNLLEKDLRGKETTNGSIRYKEANNFRSLPNSHTAACKTSLNNPSISRNHPHNKSASVLESEDEHGNERGENEKSLRMRGKSGINTKVCSRGHWRPTEDAKLKELVAQFGPQNWNLISNHLLGRSGKSCRLRWFNQLDPRINKRAFTEEEEFRLLAAHRAYGNKWALISRLFPGRTDNAVKNHWHVIMARRTRESQRQRQQPPPTLSRDAEMTVSSSCRYNQGKFINEEDDDDDVSAVSTCTTELSLTPPSSAYQPRFFNYDSTLASGKDGQCVQRAEVNGIYGKKMDHQNHHTISVSERKVEMKMRSGYYYFDFLGVGAS
notes: BRAVO, R2R3-MYB transcription factor of Arabidopsis thaliana; the CDS amplified from cDNA; FRET acceptor; source: N. benthamiana abaxial epidermal leaf cells, transiently expressed (β-estradiol inducible), in cells
Question: How did the binding turn out when B1 was run?
Answer: binds
